23 targets from the supplement of paper PMC10849652 can be followed below.

Amino acid sequences for entries named in this document (tags omitted). A change or cut given only in a name is not applied to a line headed by its entry.
UniProt Q9BW60: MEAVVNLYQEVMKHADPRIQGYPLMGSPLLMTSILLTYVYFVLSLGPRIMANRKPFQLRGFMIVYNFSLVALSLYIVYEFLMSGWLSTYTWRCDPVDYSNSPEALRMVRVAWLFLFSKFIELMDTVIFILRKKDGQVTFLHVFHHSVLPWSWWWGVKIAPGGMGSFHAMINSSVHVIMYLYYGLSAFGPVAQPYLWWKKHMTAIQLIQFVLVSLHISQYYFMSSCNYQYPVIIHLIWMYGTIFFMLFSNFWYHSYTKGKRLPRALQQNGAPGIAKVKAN
UniProt P55010, whole entry, looked up: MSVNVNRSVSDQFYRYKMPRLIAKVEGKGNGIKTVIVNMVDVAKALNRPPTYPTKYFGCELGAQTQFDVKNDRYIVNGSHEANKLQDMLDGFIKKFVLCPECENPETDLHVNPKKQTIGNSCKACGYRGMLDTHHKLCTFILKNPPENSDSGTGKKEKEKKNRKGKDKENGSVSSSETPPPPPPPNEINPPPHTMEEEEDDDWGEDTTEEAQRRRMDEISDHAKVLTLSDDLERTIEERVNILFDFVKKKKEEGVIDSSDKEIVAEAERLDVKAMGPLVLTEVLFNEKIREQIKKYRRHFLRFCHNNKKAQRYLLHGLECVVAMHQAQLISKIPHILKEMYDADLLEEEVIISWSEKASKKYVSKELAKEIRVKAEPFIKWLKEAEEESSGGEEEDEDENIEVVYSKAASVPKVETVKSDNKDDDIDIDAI
UniProt Q14232, whole entry, looked up: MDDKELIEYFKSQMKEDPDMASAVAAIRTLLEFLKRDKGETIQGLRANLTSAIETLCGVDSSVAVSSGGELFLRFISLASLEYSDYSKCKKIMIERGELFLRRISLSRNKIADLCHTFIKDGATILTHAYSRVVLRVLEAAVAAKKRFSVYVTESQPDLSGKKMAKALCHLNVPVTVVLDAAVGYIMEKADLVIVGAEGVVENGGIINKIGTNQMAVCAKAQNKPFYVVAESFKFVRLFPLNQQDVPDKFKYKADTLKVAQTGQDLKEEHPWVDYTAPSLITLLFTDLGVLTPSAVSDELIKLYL
UniProt Q8N3D4: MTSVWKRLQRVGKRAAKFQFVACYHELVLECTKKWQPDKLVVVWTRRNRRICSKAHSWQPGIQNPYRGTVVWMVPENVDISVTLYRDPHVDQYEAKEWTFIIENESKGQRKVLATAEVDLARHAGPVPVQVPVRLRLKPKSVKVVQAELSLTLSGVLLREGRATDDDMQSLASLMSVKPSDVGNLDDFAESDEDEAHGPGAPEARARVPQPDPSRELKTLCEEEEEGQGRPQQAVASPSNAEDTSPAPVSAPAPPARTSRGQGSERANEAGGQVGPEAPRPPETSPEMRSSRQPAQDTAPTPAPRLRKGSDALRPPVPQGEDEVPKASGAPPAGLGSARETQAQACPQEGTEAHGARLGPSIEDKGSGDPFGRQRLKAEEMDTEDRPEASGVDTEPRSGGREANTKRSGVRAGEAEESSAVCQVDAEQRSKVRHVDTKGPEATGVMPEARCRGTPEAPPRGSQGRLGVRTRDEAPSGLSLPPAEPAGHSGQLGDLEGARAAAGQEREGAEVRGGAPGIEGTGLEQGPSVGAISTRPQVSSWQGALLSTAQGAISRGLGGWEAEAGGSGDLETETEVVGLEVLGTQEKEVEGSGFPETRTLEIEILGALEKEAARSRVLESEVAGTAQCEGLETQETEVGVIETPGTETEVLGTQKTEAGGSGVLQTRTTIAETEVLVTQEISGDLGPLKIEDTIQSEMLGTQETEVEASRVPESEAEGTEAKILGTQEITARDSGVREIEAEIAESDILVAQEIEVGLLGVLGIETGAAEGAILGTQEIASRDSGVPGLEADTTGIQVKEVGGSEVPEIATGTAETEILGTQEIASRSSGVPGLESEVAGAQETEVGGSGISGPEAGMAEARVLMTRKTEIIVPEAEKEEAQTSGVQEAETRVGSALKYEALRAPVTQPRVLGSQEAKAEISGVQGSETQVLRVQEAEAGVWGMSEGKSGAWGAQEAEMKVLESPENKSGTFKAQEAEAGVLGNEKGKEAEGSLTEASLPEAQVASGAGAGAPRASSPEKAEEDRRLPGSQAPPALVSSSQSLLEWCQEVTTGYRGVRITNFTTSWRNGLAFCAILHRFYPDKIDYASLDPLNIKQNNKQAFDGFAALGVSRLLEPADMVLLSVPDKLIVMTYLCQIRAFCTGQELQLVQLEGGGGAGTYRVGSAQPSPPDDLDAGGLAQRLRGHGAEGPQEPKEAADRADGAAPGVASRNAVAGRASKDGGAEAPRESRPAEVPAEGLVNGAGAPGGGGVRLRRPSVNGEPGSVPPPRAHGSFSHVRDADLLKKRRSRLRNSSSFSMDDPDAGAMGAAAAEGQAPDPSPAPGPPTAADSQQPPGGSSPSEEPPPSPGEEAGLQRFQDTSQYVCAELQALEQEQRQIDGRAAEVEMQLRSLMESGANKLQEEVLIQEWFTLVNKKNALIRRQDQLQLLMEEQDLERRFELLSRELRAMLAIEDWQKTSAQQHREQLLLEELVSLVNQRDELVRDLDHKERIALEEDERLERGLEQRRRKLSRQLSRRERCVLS
UniProt O43402: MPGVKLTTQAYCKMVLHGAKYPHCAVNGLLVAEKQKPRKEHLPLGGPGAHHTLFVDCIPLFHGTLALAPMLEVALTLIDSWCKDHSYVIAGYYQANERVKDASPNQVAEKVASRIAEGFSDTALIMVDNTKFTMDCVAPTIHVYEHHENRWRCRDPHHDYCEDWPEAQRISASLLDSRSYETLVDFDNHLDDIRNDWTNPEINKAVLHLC
UniProt O60841: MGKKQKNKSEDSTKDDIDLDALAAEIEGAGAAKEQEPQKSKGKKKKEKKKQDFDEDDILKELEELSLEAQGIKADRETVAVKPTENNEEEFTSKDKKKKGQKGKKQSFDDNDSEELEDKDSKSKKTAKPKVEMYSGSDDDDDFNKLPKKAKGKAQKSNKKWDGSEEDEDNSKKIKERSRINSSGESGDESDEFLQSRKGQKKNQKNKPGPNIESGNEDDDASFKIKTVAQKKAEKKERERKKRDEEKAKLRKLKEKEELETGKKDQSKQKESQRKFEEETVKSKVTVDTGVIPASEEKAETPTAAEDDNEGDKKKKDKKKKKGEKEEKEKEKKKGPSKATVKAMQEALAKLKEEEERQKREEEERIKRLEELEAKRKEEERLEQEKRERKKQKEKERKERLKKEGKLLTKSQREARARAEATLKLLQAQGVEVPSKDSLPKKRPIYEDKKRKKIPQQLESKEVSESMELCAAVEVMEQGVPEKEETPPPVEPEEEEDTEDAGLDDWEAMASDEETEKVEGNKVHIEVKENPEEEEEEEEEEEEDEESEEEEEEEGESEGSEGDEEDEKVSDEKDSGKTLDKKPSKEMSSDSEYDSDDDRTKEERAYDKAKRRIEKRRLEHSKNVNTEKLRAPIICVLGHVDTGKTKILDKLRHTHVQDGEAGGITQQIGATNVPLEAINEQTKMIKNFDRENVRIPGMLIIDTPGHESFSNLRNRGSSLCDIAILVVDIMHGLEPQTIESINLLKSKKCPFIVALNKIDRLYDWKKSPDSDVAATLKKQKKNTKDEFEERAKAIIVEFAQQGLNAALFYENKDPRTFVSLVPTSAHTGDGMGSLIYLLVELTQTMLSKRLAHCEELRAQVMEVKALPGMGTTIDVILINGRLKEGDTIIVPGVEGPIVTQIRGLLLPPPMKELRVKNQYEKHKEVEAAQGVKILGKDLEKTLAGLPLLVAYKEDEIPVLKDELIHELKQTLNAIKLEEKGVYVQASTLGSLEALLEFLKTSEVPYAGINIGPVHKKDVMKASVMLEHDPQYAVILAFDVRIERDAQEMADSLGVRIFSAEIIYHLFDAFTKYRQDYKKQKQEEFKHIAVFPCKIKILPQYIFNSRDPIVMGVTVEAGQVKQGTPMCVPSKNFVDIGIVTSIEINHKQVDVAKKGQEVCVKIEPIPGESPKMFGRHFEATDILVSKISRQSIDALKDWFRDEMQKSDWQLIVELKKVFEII
UniProt P24534: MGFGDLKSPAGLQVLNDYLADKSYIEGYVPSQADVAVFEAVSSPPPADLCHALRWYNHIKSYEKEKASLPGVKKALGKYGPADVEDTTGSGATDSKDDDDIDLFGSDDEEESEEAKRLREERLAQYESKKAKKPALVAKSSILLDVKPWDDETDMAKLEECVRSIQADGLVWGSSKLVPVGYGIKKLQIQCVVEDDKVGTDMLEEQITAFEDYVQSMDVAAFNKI
UniProt O95163: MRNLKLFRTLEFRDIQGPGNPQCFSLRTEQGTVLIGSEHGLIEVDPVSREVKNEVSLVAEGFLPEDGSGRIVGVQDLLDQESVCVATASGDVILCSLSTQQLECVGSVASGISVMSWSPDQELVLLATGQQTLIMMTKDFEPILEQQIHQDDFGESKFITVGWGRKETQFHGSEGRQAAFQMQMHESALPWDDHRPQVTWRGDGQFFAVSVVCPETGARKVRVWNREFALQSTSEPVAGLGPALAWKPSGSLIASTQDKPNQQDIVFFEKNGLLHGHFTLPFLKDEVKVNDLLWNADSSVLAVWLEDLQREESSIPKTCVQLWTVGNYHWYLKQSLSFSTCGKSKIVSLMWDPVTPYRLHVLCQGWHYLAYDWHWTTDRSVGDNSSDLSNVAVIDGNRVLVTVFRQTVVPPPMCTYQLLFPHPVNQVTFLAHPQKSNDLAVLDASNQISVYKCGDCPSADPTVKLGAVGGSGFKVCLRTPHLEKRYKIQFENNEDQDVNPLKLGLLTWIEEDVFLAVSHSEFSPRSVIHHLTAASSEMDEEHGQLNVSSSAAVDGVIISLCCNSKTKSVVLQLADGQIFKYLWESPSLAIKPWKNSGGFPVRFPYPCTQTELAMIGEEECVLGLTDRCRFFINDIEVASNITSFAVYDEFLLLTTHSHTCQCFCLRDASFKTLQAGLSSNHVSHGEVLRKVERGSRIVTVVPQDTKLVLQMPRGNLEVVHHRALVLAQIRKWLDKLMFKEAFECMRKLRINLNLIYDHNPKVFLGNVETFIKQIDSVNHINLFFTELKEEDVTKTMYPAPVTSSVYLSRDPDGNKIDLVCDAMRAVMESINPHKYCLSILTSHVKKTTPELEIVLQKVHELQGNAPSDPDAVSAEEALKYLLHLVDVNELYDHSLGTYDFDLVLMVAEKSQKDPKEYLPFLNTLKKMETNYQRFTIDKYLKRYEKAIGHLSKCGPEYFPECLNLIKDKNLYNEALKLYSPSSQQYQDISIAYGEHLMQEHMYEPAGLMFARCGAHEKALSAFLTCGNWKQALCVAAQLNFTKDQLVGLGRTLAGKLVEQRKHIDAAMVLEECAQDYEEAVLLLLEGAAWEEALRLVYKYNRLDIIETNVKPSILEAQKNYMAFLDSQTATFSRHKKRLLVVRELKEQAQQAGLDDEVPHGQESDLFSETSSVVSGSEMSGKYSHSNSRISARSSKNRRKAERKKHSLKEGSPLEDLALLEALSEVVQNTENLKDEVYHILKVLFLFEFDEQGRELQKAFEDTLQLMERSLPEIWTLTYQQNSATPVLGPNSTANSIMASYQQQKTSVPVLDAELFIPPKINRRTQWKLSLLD
UniProt Q8N6R0: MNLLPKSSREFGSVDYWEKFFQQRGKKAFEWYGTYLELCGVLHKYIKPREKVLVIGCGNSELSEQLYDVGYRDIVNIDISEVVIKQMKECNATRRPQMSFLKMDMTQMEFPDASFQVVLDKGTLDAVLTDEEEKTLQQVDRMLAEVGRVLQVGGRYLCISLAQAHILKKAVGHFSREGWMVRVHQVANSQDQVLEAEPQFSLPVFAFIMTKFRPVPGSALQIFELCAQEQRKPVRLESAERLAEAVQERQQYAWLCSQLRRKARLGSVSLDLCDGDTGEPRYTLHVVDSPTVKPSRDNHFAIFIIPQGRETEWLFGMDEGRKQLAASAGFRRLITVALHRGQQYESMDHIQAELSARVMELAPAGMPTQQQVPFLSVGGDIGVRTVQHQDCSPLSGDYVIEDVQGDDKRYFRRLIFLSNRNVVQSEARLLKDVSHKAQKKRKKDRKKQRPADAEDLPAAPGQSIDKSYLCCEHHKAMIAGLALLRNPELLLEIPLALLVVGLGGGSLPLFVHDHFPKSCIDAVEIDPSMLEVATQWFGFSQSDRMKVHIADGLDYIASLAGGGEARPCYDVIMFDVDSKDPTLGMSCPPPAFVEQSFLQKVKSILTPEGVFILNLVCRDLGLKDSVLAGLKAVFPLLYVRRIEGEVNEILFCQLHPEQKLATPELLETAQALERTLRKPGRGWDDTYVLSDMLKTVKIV
UniProt P29692: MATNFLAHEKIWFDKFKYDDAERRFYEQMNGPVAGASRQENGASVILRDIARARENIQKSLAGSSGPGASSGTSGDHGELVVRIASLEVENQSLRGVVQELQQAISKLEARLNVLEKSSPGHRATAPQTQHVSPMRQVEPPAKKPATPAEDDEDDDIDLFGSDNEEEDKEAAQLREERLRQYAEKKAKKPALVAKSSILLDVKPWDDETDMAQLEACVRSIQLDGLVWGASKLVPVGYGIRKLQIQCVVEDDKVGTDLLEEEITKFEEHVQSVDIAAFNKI

The list shows a part of the results.

Compound in this experiment: NC(=O)Nc1cc(-c2cccc(F)c2)sc1C(=O)N[C@H]1CCCNC1
Kind of experiment: log2 fold change, soluble protein after heating vs DMSO (PISA); higher = thermal stabilisation; K562 cells, 10 uM, 30 min; active = over 0.2 and 3.5 SD of the protein, either way, in both replicates (recomputed). The method, boiled down:
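Soluble protein was quantified by TMTpro 16plex LC-MS/MS after channel sums were equalised. It was obtained as the supernatant after 21,000xg for 90 min from pooled aliquots of K562 cells (2×10^6 cells/mL, 10 μM compound, 30 min) heated for 3 min across 48°C-58°C and extracted in PBS with 0.5% NP-40 at 4°C. Thermal stability values are relative to control samples and come from duplicates. They are given as log2 fold changes.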
For the target ELOVL1 (UniProt Q9BW60), the log2 fold change is inactive: 0.017. For EGLN1 (UniProt Q9GZT9) the value was inactive: 0.095. Take EIF5 (UniProt P55010): the log2 fold change is inactive: -0.047.

For the target EIF2B1 (UniProt Q14232), the log2 fold change is inactive: 0.005.

For the target EHBP1L1 (UniProt Q8N3D4), the log2 fold change is inactive: -0.091.

EOGT (UniProt Q5NDL2): the log2 fold change was inactive: -0.008. EHD2 (UniProt Q9NZN4): the log2 fold change was inactive: -0.034. For EMC8 (UniProt O43402) the value was inactive: 0.031; for EIF4H (UniProt Q15056), inactive: -0.004; for EIF2S3 (UniProt P41091), inactive: 0.034.

For EIF5B (UniProt O60841), the log2 fold change was inactive: 0.007. For ELOC (UniProt Q15369) the value was inactive: -0.008; for EFHD2 (UniProt Q96C19), inactive: -0.049. Regarding EFCAB14 (UniProt O75071), the log2 fold change was inactive: 0.024.

Consider EEF1B2 (UniProt P24534), for which the log2 fold change was inactive: 0.012.

With EFL1 (UniProt Q7Z2Z2), the log2 fold change is inactive: 0.001. Consider EIF1AD (UniProt Q8N9N8), for which the log2 fold change was inactive: -0.036. As for EMD (UniProt P50402), the log2 fold change was inactive: -0.012.

On to ELP1 (UniProt O95163), for which the log2 fold change was inactive: -0.029. The same measure for ELOVL5 isoform 2 (UniProt Q9NYP7): inactive: -0.07; for EEF1AKNMT (UniProt Q8N6R0): inactive: -0.025; for EEF1D isoform 2 (UniProt P29692): inactive: -0.02. Turning to EEF1G isoform 2 (UniProt P26641), the log2 fold change was inactive: -0.005.
